These are yes or no findings as the source states them, for the method shown. Binding seen in cells or lysates may run through a third protein. These calls come from enrichment with a bait or labelling near it, and not all partners need be listed.
Columns and labels:
[1] = molecular target: Ash1-CTAP (Drosophila) (UniProt Q9VW15); test: affinity purification with mass spectrometry; tandem affinity purification (TAP) of NTAP-Ash1 or Ash1-CTAP from Drosophila embryonic nuclear extracts; eluates from calmodulin beads separated on 4-12% gels; iBAQ quantification against mock TAP from wild type
[2] = molecular target: NTAP-Ash1 (Drosophila) (UniProt Q9VW15); test: as above

Amino acid sequences for entries named in this document (tags omitted).
UniProt Q9VW15: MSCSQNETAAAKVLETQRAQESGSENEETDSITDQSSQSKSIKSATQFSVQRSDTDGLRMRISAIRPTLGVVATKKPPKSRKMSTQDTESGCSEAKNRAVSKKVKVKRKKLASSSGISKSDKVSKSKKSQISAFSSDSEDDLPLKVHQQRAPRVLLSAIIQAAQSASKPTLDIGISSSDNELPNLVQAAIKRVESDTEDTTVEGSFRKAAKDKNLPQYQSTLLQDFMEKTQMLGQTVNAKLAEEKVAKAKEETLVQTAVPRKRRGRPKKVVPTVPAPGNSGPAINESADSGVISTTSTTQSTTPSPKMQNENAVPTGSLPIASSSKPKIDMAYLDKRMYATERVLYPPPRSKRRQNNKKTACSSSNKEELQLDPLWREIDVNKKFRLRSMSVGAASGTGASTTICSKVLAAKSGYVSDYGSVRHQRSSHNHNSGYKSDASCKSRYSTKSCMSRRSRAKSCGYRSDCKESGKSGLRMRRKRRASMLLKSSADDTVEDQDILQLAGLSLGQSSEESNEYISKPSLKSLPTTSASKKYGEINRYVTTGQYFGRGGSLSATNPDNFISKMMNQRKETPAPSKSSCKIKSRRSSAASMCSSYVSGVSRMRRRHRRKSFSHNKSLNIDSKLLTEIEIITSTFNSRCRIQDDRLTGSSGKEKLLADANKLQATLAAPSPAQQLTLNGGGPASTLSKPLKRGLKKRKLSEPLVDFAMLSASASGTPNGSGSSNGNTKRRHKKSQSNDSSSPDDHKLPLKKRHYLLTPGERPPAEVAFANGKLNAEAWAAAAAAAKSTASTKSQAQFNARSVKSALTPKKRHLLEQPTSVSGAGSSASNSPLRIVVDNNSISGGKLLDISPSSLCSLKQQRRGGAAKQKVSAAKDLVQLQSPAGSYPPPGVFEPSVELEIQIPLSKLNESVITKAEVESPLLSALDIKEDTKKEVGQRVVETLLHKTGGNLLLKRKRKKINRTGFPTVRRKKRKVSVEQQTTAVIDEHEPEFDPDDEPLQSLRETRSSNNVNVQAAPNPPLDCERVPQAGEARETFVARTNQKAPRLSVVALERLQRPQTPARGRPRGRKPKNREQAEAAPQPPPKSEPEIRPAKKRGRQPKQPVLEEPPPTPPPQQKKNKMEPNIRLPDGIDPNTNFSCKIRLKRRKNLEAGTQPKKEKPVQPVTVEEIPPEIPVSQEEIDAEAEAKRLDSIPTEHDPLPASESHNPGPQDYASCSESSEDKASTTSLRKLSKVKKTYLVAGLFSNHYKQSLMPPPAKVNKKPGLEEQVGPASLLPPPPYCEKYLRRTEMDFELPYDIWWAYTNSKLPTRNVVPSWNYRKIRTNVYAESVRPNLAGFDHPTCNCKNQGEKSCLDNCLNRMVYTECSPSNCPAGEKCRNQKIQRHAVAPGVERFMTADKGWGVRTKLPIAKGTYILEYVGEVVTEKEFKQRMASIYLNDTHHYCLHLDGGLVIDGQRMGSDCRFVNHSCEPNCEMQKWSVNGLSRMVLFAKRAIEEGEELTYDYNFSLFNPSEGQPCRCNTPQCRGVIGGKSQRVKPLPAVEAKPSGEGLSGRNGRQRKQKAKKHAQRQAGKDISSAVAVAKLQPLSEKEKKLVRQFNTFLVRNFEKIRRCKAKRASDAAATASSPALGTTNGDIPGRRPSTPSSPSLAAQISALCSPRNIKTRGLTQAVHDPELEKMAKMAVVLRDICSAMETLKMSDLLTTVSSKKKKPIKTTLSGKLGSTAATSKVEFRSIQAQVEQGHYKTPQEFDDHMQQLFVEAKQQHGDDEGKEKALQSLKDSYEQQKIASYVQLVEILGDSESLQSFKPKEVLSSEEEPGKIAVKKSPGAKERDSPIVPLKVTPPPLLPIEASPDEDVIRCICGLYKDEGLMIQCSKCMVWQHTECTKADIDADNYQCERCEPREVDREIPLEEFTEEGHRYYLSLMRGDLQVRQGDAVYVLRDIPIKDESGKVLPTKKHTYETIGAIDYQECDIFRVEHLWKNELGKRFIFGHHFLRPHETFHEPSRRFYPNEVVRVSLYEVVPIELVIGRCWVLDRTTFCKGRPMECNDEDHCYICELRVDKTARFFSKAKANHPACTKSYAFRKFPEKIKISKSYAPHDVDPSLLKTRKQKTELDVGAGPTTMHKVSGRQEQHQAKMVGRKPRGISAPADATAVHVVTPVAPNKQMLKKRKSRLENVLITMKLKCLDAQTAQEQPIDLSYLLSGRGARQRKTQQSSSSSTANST

binding [1]: binds
binding [2]: binds
B1: MRG15 (endogenous, Drosophila embryos) (protein, UniProt Q9Y0I1 1-424)
chain: MGEVKPAKVENYSTGTDANTLFVDGERVLCFHGPLIYEAKVLKTKPDATPVEYYIHYAGWSKNWDEWVPENRVLKYNDDNVKRRQELARQCGERSKKDNKKGSAKAKKMEQMRNESRASTPSKDSNTSQSTASSTPTTSAGPGSKSEAGSTGTTTTNSTANSTTSRAHRKSTQSTPSTARPGTPSDKKEDPAAAETTEEEGPVAPKKKRMSEQRPSLTGSDVAEKPLPPTTTPSTPTTEPAPCVESEEAYAAKVEVKIKIPDELKHYLTDDWYAVVREHKLLELPAKVTVQQISEQYLAHKKSVKSTSASKEVAINDVLDGIVEYFNVMLGSQLLYKFERTQYADVMQKHPDTPLSELYGSFHLLRLFVRLGSMLSYSALDQQSMQNLLTHVQDFLKFLVKNSSIFFSMSNFINVDPEYVRNAQ
